Measurements reported in PubChem BioAssay AID504786 (Drosophila RNAi Screening Center, 2011)
In all, the deposit lists about 21,000 reagents; shown is an unselected part of those with a known target gene and a result. 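Primary screen; positive scores mean lost reporter signal, so the sign may be inverted from the usual convention.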 Reagents against one gene are numbered here. A plus sign joins genes that one reagent is predicted to hit. Further read-outs or replicates are left out here.

Test: 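Fly genes required for HIF-dependent transcription when hypoxia is mimicked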 (primary screen)
Cells: Drosophila S2 cells with a stable HIF luciferase reporter
Knock-down reagent: long dsRNA against Drosophila genes, about 0.2 µg dsRNA per well of a 384-well plate
Timing: three days of knock-down, then 20 h of DFO before reading
Challenge: desferrioxamine (DFO) at 100 µM, an iron chelator that mimics hypoxia, for 20 h
Measurement: 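Firefly luciferase driven by the mouse ldh-a hypoxia-response element, measured after 20 h of 100 µM DFO; z-scores per plate, higher means more signal lost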
Reading the numbers: z-score: higher = stronger loss of HIF reporter signal

CG5823 → z-score, replicate 1 = -0.3
CG32280 → z-score, replicate 1 = -0.1
CG15404 → z-score, replicate 1 = -0.3
CG13744 → z-score, replicate 1 = -0.4
RpS2 (Ribosomal protein S2) → z-score, replicate 1 = 6.8
lectin-33A → z-score, replicate 1 = -0.2
Sgf29 (SAGA-associated factor 29kDa) → z-score, replicate 1 = -0.3
key (kenny) → z-score, replicate 1 = -0.2
Hsp67Ba (Heat shock gene 67Ba) → z-score, replicate 1 = 1
viaf (viral IAP-associated factor) → z-score, replicate 1 = -0.4
CG3808 → z-score, replicate 1 = 0
CG17327 → z-score, replicate 1 = -0.1
CG15194 (retired record) #1 → z-score, replicate 1 = -0.1
CG15194 (retired record) #2 → z-score, replicate 1 = 0
Cpr100A (Cuticular protein 100A) → z-score, replicate 1 = 0.1
CG17198 + CG17197 #1 → z-score, replicate 1 = -0.2
CG17198 + CG17197 #2 → z-score, replicate 1 = -0.3
CG16824 → z-score, replicate 1 = -0.3
WDR79 (WD repeat domain 79) → z-score, replicate 1 = -0.2
CG4836 → z-score, replicate 1 = -0.2
CG33234 → z-score, replicate 1 = -0.3
CG13437 → z-score, replicate 1 = -0.3
CG30015 #1 → z-score, replicate 1 = 0
CG30015 #2 → z-score, replicate 1 = -0.4
CG30015 #3 → z-score, replicate 1 = -0.3
CG4151 → z-score, replicate 1 = -0.3
Pi3K68D (Phosphatidylinositol 3-kinase 68D) → z-score, replicate 1 = 2.3
Rbm13 (RNA-binding motif protein 13) → z-score, replicate 1 = 0.6
CG18249 → z-score, replicate 1 = -0.4
CG11777 → z-score, replicate 1 = -0.3
Ugt36A1 (UDP-glycosyltransferase family 36 member A1) → z-score, replicate 1 = -0.4
CG43066 → z-score, replicate 1 = -0.2
Cyp305a1 (Cytochrome P450 305a1) → z-score, replicate 1 = -0.3
Map60 (Microtubule-associated protein 60) → z-score, replicate 1 = -0.3
CG17738 → z-score, replicate 1 = -0.2
Hsp68 (Heat shock protein 68) → z-score, replicate 1 = -0.3
Ccp84Ad → z-score, replicate 1 = 0.1
Ercc1 → z-score, replicate 1 = 0.1
MED25 (Mediator complex subunit 25) → z-score, replicate 1 = 3.3
CSN1a (COP9 signalosome subunit 1a) → z-score, replicate 1 = -0.4
Ir10a (Ionotropic receptor 10a) #1 → z-score, replicate 1 = -0.5
Ir10a (Ionotropic receptor 10a) #2 → z-score, replicate 1 = -0.1
Ir10a (Ionotropic receptor 10a) #3 → z-score, replicate 1 = -0.1
CG33914 → z-score, replicate 1 = -0.1
PolE2 (DNA polymerase epsilon subunit 2) → z-score, replicate 1 = 0.1
CG18266 → z-score, replicate 1 = -0.1
mio (missing oocyte) → z-score, replicate 1 = 0.9
Osbp (Oxysterol binding protein) → z-score, replicate 1 = -0.3
CG9922 → z-score, replicate 1 = -0.2
aus (argus) #1 → z-score, replicate 1 = 0.3
aus (argus) #2 → z-score, replicate 1 = 0.6
aus (argus) #3 → z-score, replicate 1 = 0

5 of these entries, set out differently.
gene knocked down,dsRNA no.,"z-score, replicate 1"
Cyp305a1 (Cytochrome P450 305a1),1,-0.3
Map60 (Microtubule-associated protein 60),1,-0.3
CG17738,1,-0.2
Hsp68 (Heat shock protein 68),1,-0.3
Ccp84Ad,1,0.1
